Literature values as cited in patent publication US7384971B2, “Phytochemicals for the treatment of cervical dysplasia” (BioResponse L.L.C., priority 1999, dated 2008).
At least one structure is not confirmed: it was looked up by name or label, or the drawing left a doubt. Some results were stated once for a whole list of compounds, not compound by compound.

Test system: women with mastalgia
Conditions: cited from earlier work; for Reported adverse side effects: mastalgia treatment

| SMILES | Reported adverse side effects | Response rate in mastalgia (severe breast pain) [%] |
| --- | --- | --- |
| CC(C)C[C@H]1C(=O)N2CCC[C@H]2[C@]2(O)O[C@](NC(=O)[C@@H]3C=C4c5cccc6[nH]c(Br)c(c56)C[C@H]4N(C)C3)(C(C)C)C(=O)N12 [Bromocriptine] | 30-35% | 70 |
| C#C[C@]1(O)CC[C@H]2[C@@H]3CCC4=Cc5oncc5C[C@]4(C)[C@H]3CC[C@@]21C [Danazol] | 30-35% | – |
